From the supplement of paper PMC10849652 come the findings set out here.

Chains of the proteins cited; added tags and fusions are not shown. Lines headed by an entry give the natural chain unless they say otherwise; changes in a name come on top.
UniProt Q53HV7: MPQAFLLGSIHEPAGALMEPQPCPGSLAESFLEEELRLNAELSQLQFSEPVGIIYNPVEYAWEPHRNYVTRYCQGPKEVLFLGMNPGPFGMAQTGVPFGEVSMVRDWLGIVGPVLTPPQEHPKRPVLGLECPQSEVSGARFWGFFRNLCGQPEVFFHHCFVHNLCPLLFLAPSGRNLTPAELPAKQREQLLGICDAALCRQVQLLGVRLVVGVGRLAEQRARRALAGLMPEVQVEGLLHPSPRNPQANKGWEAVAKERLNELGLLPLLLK
UniProt O75391: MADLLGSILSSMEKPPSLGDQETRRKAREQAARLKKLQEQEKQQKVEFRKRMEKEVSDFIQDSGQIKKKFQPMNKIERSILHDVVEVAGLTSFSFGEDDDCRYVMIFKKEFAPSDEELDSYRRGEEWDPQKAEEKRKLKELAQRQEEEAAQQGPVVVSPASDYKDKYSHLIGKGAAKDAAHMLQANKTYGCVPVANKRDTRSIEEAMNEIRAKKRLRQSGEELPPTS
UniProt Q969G3, whole entry, looked up: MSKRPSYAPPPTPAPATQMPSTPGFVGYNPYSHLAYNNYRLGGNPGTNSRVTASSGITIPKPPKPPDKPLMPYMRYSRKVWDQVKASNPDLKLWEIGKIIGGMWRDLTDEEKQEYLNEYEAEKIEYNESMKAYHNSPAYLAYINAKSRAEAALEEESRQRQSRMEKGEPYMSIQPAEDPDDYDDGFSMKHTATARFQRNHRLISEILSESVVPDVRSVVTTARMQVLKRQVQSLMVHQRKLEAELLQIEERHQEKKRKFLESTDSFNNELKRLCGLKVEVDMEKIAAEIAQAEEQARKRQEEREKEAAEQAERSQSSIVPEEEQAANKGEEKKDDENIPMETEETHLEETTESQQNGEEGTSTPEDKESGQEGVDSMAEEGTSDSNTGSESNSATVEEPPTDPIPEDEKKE
UniProt Q14683: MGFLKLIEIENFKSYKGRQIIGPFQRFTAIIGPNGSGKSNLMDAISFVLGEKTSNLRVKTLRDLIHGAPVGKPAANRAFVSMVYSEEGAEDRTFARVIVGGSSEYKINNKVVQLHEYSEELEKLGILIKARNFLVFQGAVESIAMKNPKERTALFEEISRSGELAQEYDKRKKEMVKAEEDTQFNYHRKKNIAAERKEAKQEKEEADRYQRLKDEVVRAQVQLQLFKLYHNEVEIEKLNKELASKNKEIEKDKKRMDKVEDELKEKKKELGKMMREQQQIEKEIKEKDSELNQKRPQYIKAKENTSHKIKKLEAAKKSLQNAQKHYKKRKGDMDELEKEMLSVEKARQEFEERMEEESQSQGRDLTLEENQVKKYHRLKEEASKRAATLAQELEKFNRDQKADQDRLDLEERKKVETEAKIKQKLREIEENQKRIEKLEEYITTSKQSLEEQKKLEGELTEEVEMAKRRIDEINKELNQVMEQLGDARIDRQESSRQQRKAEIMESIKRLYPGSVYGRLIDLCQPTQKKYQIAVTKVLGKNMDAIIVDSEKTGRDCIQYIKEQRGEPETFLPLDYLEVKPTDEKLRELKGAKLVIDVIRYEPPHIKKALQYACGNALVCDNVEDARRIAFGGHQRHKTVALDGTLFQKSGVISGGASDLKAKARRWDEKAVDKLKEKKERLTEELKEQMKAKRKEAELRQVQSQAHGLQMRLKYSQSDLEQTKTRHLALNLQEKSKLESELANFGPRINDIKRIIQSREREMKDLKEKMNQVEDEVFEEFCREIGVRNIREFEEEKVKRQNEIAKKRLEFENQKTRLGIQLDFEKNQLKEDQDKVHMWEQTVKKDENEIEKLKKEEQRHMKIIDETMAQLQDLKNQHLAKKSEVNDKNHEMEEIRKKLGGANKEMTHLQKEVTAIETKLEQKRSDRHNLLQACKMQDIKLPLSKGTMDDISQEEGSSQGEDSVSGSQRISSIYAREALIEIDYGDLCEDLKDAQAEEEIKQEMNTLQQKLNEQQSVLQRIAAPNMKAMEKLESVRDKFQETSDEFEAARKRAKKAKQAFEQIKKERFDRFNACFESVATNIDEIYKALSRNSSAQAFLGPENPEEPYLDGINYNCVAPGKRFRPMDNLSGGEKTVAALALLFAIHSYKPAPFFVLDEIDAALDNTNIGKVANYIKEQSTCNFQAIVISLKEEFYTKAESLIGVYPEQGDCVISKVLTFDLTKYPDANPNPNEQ
UniProt Q8WVK2: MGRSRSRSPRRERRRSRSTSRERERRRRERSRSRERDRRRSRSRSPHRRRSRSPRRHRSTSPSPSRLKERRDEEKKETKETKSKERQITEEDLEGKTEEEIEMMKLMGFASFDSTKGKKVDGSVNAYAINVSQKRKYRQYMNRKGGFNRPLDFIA
UniProt Q6GMV2: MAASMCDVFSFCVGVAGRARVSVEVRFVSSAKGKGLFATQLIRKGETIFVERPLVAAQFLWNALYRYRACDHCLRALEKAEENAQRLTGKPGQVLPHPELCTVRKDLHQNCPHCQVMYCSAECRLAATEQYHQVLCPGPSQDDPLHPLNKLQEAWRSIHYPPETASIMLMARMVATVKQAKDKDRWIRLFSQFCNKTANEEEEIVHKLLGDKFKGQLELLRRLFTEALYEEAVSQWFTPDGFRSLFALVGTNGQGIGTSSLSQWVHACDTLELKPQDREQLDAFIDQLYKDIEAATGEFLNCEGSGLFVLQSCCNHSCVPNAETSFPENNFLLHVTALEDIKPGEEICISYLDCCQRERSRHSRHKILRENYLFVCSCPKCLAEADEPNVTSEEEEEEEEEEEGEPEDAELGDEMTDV
UniProt O95219: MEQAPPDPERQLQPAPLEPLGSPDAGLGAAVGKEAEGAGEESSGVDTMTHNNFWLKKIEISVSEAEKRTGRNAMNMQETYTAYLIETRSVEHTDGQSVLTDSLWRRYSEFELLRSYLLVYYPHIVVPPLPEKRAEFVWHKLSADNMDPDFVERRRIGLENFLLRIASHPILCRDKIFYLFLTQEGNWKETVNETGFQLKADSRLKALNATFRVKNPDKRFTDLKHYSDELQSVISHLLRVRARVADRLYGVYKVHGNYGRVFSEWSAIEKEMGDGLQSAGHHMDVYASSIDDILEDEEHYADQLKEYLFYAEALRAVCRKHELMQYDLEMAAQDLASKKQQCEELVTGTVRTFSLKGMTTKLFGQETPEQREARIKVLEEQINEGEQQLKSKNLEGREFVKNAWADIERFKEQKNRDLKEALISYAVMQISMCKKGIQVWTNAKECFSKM
UniProt P62316, whole entry, looked up: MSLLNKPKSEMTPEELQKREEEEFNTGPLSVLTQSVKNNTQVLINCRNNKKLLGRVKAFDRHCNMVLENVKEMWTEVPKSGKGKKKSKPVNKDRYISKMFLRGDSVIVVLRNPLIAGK
UniProt P35711: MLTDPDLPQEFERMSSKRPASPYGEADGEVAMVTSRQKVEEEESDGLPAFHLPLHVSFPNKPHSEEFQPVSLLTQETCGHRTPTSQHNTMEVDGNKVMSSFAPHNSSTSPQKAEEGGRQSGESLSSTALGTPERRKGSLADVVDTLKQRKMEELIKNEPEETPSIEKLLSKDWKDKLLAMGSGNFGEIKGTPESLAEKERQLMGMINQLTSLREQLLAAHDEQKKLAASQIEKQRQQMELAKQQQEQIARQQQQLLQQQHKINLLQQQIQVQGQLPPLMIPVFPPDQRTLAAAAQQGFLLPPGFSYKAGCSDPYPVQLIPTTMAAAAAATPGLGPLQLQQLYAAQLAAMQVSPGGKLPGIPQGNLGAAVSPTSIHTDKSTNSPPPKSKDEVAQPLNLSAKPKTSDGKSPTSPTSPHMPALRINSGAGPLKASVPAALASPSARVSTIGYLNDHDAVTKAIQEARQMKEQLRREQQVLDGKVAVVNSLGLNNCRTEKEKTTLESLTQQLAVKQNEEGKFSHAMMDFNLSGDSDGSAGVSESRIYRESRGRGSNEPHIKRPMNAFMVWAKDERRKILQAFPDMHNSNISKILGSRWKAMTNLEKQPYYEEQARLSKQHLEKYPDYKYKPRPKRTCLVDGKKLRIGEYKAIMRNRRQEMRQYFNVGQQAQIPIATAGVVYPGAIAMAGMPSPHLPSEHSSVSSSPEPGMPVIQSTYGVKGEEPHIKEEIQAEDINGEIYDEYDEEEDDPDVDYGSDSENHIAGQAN
UniProt Q6IEG0: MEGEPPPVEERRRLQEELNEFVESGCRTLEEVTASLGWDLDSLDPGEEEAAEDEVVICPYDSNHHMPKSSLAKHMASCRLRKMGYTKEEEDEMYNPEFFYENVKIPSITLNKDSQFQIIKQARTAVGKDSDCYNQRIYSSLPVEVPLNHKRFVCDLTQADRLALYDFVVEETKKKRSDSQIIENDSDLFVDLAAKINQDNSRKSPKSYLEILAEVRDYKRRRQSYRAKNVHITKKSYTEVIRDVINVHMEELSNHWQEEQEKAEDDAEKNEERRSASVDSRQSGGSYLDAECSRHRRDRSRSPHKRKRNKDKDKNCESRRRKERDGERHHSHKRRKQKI
UniProt Q9NRH2: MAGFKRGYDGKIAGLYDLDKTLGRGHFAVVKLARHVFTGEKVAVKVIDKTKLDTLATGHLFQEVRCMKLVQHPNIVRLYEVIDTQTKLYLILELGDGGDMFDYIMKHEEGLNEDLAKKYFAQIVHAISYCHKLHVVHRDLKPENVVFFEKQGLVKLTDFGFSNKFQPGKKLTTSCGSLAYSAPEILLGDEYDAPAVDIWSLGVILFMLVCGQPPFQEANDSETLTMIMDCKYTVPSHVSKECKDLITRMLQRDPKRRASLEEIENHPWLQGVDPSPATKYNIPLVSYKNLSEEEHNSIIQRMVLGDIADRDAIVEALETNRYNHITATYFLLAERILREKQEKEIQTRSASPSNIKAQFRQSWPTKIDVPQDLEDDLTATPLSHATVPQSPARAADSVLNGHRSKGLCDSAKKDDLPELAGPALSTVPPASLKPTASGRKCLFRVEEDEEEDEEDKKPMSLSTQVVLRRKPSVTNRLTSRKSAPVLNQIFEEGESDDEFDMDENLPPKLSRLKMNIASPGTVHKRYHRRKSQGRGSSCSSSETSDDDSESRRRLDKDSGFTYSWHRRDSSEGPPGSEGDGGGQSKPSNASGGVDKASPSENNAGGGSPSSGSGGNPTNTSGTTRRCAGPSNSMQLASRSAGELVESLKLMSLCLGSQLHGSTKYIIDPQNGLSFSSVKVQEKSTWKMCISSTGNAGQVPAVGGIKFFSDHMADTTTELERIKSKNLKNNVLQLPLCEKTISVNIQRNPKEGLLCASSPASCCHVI
UniProt Q13596, whole entry, looked up: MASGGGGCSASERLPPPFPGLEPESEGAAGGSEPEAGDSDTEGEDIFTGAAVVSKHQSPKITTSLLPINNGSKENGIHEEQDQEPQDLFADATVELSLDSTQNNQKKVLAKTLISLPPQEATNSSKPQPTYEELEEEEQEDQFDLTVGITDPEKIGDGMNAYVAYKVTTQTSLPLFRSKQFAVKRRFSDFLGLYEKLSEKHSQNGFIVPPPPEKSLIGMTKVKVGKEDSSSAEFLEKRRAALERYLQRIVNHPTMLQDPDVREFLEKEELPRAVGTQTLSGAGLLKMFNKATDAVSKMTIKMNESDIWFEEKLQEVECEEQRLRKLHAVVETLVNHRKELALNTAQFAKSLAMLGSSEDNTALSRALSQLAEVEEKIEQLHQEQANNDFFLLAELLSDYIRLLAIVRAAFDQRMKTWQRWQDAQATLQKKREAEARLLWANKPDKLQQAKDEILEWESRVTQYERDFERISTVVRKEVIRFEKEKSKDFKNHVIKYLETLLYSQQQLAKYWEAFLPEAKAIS
UniProt P52788: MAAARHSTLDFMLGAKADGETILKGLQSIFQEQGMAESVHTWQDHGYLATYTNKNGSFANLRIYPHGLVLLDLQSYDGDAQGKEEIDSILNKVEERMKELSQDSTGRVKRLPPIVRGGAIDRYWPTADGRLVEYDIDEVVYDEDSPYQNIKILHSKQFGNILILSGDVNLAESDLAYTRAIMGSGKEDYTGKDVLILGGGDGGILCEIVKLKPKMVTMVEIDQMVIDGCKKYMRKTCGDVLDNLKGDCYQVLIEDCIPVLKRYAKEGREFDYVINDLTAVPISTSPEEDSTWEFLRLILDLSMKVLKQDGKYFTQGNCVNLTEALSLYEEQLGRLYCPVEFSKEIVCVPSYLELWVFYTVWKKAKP

Common to all, as to assay: log2 fold change, soluble protein after heating vs DMSO (PISA); higher = thermal stabilisation; K562 lysate, 10 uM; active = over 0.2 and 3.5 SD of the protein, either way, in both replicates (recomputed)
Compound in one experiment: C#Cc1cccc(Nc2ncnc3cc(OCCOC)c(OCCOC)cc23)c1 [erlotinib]
The essentials:
(§1)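 Quantification was by TMTpro 16plex LC-MS/MS with equalised channel sums, applied to the supernatant after 21,000xg for 90 min. Samples were crude K562 extract at 1 mg/mL protein in PBS pH 7.4 with 1 mM MgCl2, treated with 10 μM compound for 30 min, heated for 3 min across 48°C-58°C, pooled and brought to 0.5% NP-40 at 4°C. Values are log-two fold changes in thermal stability relative to solvent controls, from duplicates.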

Compound in experiment [1]: C/C(=N\NC(=O)C1=CC(=CC=C1)S(=O)(=O)N2CCOCC2)/C3=C(C=CC(=C3)Cl)O
Summed up: as §1

Compound in experiment [2]: C1=CC(=CC=C1C2=NC3=C(N2)C=C(C=C3)C(=O)N)OC4=CC=C(C=C4)Cl
The essentials: as §1

Compound in experiment [3]: C1=CC2=C(C=CC(=C2)/C=C\3/C(=O)NC(=NCC4=CC=CS4)S3)N=C1
The essentials: as §1

Compound in experiment [4]: C1=CC2=NC=CN=C2C=C1/C=C/3\C(=O)NC(=O)S3
Summed up: as §1

Compound in experiment [5]: C1=CC=C(C=C1)C2=NC(=C(N2)C3=CC=NC=C3)C4=CC(=C(C=C4)Cl)O
The essentials:
as §1

Compound in experiment [6]: C1=CC=C2C(=C1)C3=NNC4=CC=CC(=C43)C2=O
The essentials: as §1

Compound in experiment [7]: C1CCN(C1)C(=O)NC2=CC=CC(=C2)NC3=NC=C(C(=N3)NCCC4=CN=CN4)Br
The essentials: as §1

Compound in experiment [8]: C1CN(CCC1(CC2=CC=C(C=C2)Cl)N)C3=NC=NC4=C3C=CN4
Summed up: as §1

Compound in another experiment: C1COCCN1CCN2C3=CC=CC=C3N=C2NC(=O)C4=CC(=CC=C4)[N+](=O)[O-] [IRAK-1-4 Inhibitor I]
The essentials: as §1

The other results are listed elsewhere or left out.

In the case of SMUG1 (UniProt Q53HV7), the log2 fold change with erlotinib was inactive: 0.035; in [1], inactive: -0.025; in experiment [2], inactive: 0.152; in experiment [3], inactive: 0.062; in experiment [4] it was inactive: -0.03; in experiment [5], inactive: 0.007. Moreover, the log2 fold change is inactive: -0.119 in [6], inactive: -0.036 in [7], inactive: 0.028 in experiment [8] and inactive: 0.015 with IRAK-1-4 Inhibitor I.

Take SNX6, A0A0A0MRI2: the log2 fold change in the experiment with erlotinib is inactive: 0.012; in [1], inactive: 0.056; in experiment [2] it was inactive: -0.029; in experiment [3] it was inactive: 0.04; in experiment [4] it was inactive: -0.028; in [5] it was inactive: 0.013. In addition, the log2 fold change in [6] was inactive: -0.073; in [7] it was inactive: 0.024; in [8], inactive: -0.047; in the experiment with IRAK-1-4 Inhibitor I it was inactive: -0.013.

Consider SPAG7 (UniProt O75391), for which the log2 fold change in the experiment with erlotinib was inactive: -0.009; in [1] it was inactive: 0.043; in experiment [2], inactive: 0.013; in experiment [3], inactive: -0.019; in [4] it was inactive: 0.029; in [5] it was inactive: 0.023. Besides, the log2 fold change in [6] was inactive: -0.007; in experiment [7], inactive: 0.028; in experiment [8], inactive: 0.015; with IRAK-1-4 Inhibitor I, inactive: 0.017.

Turning to SMARCE1 (UniProt Q969G3), the log2 fold change in the experiment with erlotinib is inactive: -0.027; in [1] it was inactive: 0.003; in [2], inactive: 0.028; in experiment [3], inactive: 0.011; in [4] it was inactive: -0.004; in experiment [5], inactive: -0.041. The log2 fold change in experiment [6] was inactive: -0.029; in experiment [7], inactive: -0.032; in experiment [8] it was inactive: -0.004; with IRAK-1-4 Inhibitor I it was inactive: 0.001.

In the case of SMC1A (UniProt Q14683), the log2 fold change was inactive: -0.011 with erlotinib; inactive: 0 in experiment [1]; inactive: 0.002 in experiment [2]; inactive: 0.002 in experiment [3]; inactive: -0.021 in experiment [4]; inactive: 0.006 in experiment [5]. In addition, the log2 fold change was inactive: -0.014 in [6], inactive: 0.005 in [7], inactive: -0.006 in experiment [8] and inactive: 0.01 with IRAK-1-4 Inhibitor I.

Regarding SNRNP27 (UniProt Q8WVK2), the log2 fold change is inactive: -0.119 in the experiment with erlotinib; inactive: -0.048 in [1]; inactive: 0.014 in experiment [2]; inactive: 0.038 in [3]; inactive: -0.053 in experiment [4]; inactive: -0.022 in experiment [5]. Further, the log2 fold change was inactive: 0.001 in experiment [6], inactive: 0.002 in [7], inactive: -0.013 in experiment [8] and inactive: 0.006 with IRAK-1-4 Inhibitor I.

As to SMYD5 (UniProt Q6GMV2), the log2 fold change with erlotinib is inactive: 0.022; in [1], inactive: -0.109; in experiment [2] it was inactive: 0.037; in experiment [3], inactive: 0.042; in experiment [4] it was inactive: 0.014; in experiment [5] it was inactive: -0.037. The log2 fold change in [6] was inactive: -0.005; in [7], inactive: 0.011; in experiment [8], inactive: 0.091; with IRAK-1-4 Inhibitor I, inactive: 0.014.

Take SNX4 (UniProt O95219): the log2 fold change with erlotinib is inactive: -0.046; in experiment [1], inactive: 0.049; in experiment [2], inactive: 0.004; in [3], inactive: -0.045; in experiment [4] it was inactive: -0.013; in [5] it was inactive: 0.035. Also, the log2 fold change in experiment [6] is inactive: -0.055; in experiment [7] it was inactive: 0.007; in experiment [8], inactive: 0.008; with IRAK-1-4 Inhibitor I, inactive: 0.059.

As for SNRPD2 (UniProt P62316), the log2 fold change with erlotinib was inactive: 0.019; in experiment [1] it was inactive: 0.005; in experiment [2], inactive: 0.058; in experiment [3], inactive: -0.004; in experiment [4] it was inactive: -0.018; in experiment [5], inactive: -0.001. In addition, the log2 fold change in experiment [6] is inactive: -0.035; in [7] it was inactive: 0.004; in experiment [8], inactive: -0.008; with IRAK-1-4 Inhibitor I, inactive: 0.004.

Regarding SOX5 (UniProt P35711), the log2 fold change with erlotinib was inactive: -0.169; in experiment [1], inactive: 0.08; in experiment [2], inactive: 0.025; in experiment [3], active: 0.38; in experiment [4] it was inactive: 0.131; in experiment [5], inactive: 0.059. Besides, the log2 fold change in experiment [6] is inactive: -0.239; in experiment [7], inactive: 0.028; in experiment [8] it was inactive: 0.154; with IRAK-1-4 Inhibitor I, inactive: 0.044.

Regarding SNRNP48 (UniProt Q6IEG0), the log2 fold change with erlotinib is inactive: 0; in experiment [1], inactive: 0.187; in [2], inactive: -0.035; in experiment [3] it was inactive: -0.119; in experiment [4], inactive: -0.019; in experiment [5], inactive: 0.023. The log2 fold change in experiment [6] was inactive: 0.153; in [7], inactive: -0.015; in experiment [8], inactive: -0.079; with IRAK-1-4 Inhibitor I, inactive: -0.048.

On to SNRK (UniProt Q9NRH2), for which the log2 fold change in the experiment with erlotinib is inactive: -0.505; in experiment [1] it was inactive: -0.351; in experiment [2], inactive: -0.054; in experiment [3] it was inactive: -0.081; in [4] it was inactive: -0.019; in [5] it was inactive: 0.038. Further, the log2 fold change in [6] is inactive: 0.16; in experiment [7] it was inactive: -0.011; in experiment [8], inactive: -0.094; with IRAK-1-4 Inhibitor I, inactive: -0.078.

In the case of SMG6 (UniProt Q86US8), the log2 fold change with erlotinib is inactive: -0.038; in experiment [1] it was inactive: 0.026; in experiment [2] it was inactive: 0.012; in experiment [3] it was inactive: 0.009; in experiment [4] it was inactive: 0.021; in [5], inactive: 0. For the same target, the log2 fold change in experiment [6] was inactive: -0.092; in experiment [7], inactive: -0.04; in experiment [8], inactive: -0.005; in the experiment with IRAK-1-4 Inhibitor I, inactive: 0.026.

For the target SNX1 (UniProt Q13596), the log2 fold change with erlotinib is inactive: -0.013; in [1], inactive: 0.009; in experiment [2], inactive: -0.005; in experiment [3] it was inactive: -0.008; in experiment [4], inactive: -0.013; in experiment [5], inactive: -0.009. Also, the log2 fold change in experiment [6] is inactive: -0.039; in experiment [7], inactive: -0.014; in experiment [8], inactive: 0.01; with IRAK-1-4 Inhibitor I, inactive: 0.002.

Turning to SMS (UniProt P52788), the log2 fold change is inactive: -0.003 with erlotinib; inactive: 0.043 in experiment [1]; inactive: 0.004 in experiment [2]; inactive: 0.003 in [3]; inactive: 0.02 in experiment [4]; inactive: 0.01 in experiment [5]. The log2 fold change in experiment [6] is inactive: 0.054; in experiment [7], inactive: 0.016; in experiment [8], inactive: -0.008; in the experiment with IRAK-1-4 Inhibitor I, inactive: -0.036.
